Experimental data from US20070270486A1.
Results are given in words; binding and its absence hold for the method and conditions named. Some entries that bind do so weakly or less than the wild type.

The chains behind the UniProt entries cited, without tags or fusion partners. Residues count along the entry.
UniProt P61823, residues 47-150: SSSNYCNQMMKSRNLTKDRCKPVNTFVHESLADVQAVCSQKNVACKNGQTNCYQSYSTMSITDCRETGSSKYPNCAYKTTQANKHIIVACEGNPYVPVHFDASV

Assays:
Experiment in all cases: western blot of lysates of transfected HEK-293 cells
[1] = biological target: CFTR with S-tag insert at Site A (between S895 and T896): S{AS[GGGG(…)GGGG(…)GGGG(…)GGGG]PR}T [SEQ ID NO:19] (human) (UniProt P13569)
[2] = biological target: CFTR truncated after S-tag insert at Site A: S{AS[SG(…)PPPSGL-COOH [SEQ ID NO:22] (human) (UniProt P13569)
[3] = biological target: CFTR with S-tag insert at Site A (between S895 and T896): S{AS[GGGG(…)GGGG(…)GGGG(…)GGGG(…)GGGG]PR}T [SEQ ID NO:20] (human) (UniProt P13569)

Measured: binding

S-protein HRP (from UniProt P61823 47-150) (enzyme)
binds: all assays above
